## Primary screen of a compound library

Each number is a percent effect as filed.
The controls that fix the scale are not given in the record; negative values are as filed.
Compounds were drawn at random from those tested, without regard to their results.
Two or more numbers in one place are separate tests of the same structure; such repeats can differ widely.

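Viability assay of Plasmodium falciparum sporozoites; the read-out is not stated. The concentration is filed as 10 mM, unlikely as a test dose, so the dose is not known. Higher reads as lower viability (inferred: compounds with an IC50 in retests scored well above the rest). Strong results were mostly tested again. Of about 34,000 compounds tested this way, about 280 (0.84%) reached 50% or more in at least one test.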

structure,effect
CC(C)(C)C(=O)N1CCC(n2cc(C3(O)CCCC3)nn2)CC1,-29.13 & -24.98
CCc1c(C(=O)N2CCCN(C(C)=O)CC2)cnn1C(C)(C)C,9.209
CC(=O)c1ccc(Cl)c(Cl)c1OCC(=O)NCC(F)(F)F,-13.94
CCN(CCC(=O)NC1CC1)Cc1ccc(Cl)s1,4.114
[H][C@@]12CN(C(=O)c3ccc(C)nc3)C[C@]1([H])OCCN2CC1CCCC1,-5.412
Cc1cc(C)cc(C(=O)Nc2cccc(CN3CCCC3C(N)=O)c2)c1 (centres unmarked),-24.51
O=C1OCCN1Cc1nc(C2(c3ccc(F)cc3)CCOC2)no1 (centres unmarked),8.218
CCCNCc1cn(C)nc1-c1cccnc1.Cl,-8.997
Cc1noc(COCC(=O)Nc2ncccc2Br)n1,-8.686
O=C(O)C(F)(F)F.O=C(O)C(F)(F)F.O=C(O)C(F)(F)F.[H][C@@]12CO[C@@H](CN3CCN(C)CC3)[C@]1([H])CCN(Cc1cccc(F)c1)C2,-9.416
Oc1ccc(CCC2CCCCN2Cc2noc(C3CC3)n2)cc1 (centres unmarked),1.609
O=C(O)[C@@H]1CN(C(=O)CSCC2CC2)C[C@H]1c1ccccn1,1.053
O=C(c1cccc(Cn2ccnc2)c1)N1CCCC(n2ccnc2)C1 (centres unmarked),1.253
O=C(Cn1nc(-c2ccc(F)cc2)oc1=O)NCc1ccccc1F,0.0993
Nc1nc2nc(C3CCN(C(=O)c4cscn4)C3)ccc2s1 (centres unmarked),-0.1999
CCCc1cc(C(=O)NC(c2ccccc2)c2n[nH]c(C)n2)[nH]n1 (centres unmarked),-10.54
Nc1nc(N)c2c(n1)OC1(COCCN(Cc3nccs3)C1)C2 (centres unmarked),-1.56
Cl.c1cnc2c(c1)cc([C@@H]1CCCO1)n2CCN1CCOCC1,10.14
Cc1ccc(S(=O)(=O)Nc2ccc(=O)n(C)c2)c(Br)c1,4.257
COCC(=O)N1Cc2nccn2CC(CN(C)Cc2cccnc2)C1 (centres unmarked),24.07
CN(C)C(=O)c1cn2cc(-c3cccc(Cl)c3)n(CC3CC3)c(=O)c2n1,-1.692
CCc1nc(CN(CC(N)=O)C(C)C)cs1,6.332
CC(=O)N1CCOCC(Cc2ccc3c(ccn3C(C)=O)c2)C1 (centres unmarked),-9.246
COCC1CN(C(=O)c2cccn2C)Cc2nccn2C1 (centres unmarked),-7.497
O=C(CN1CCN(c2ccc3nncn3n2)CC1)NC1CCCC1,2.236
O=C(O)C(F)(F)F.O=C(O)C(F)(F)F.[H][C@@]12CCN(Cc3cccnc3)[C@]1([H])CC[C@H](COCC1CCOCC1)O2,-0.4296
Cc1ccc(CNC(=O)C2=NOC3(CCCNC3)C2)cc1 (centres unmarked),-9.246
Cc1nc(NC(=O)CN2CCc3c(nc(C(C)C)n3C)C2)sc1C,20.59
CCCOCC(=O)N1CCC2(CC1)c1nc[nH]c1CCN2S(C)(=O)=O,-6.181 & -11.61
COCCNC(=O)c1cn(C(C)(C)C)c2ncccc12,4.24
O=C(c1cc[nH]n1)N1CCCC1c1cnccn1 (centres unmarked),0.3428
Cl.[H][C@@]12CN(C3CCCC3)CC[C@]1([H])N(C(=O)C1CCC1)C[C@H]2c1ccsc1,9.054
CCOc1cccc(C(=O)N2CCN(c3nccc(OC)n3)CC2)c1,4.808
N#Cc1ccc(CN2CCc3sccc3C2)c(F)c1,-1.643
O=C(O)C(F)(F)F.O=C1CC(c2ccncc2)C2(CCN(C(=O)c3ccc[nH]3)CC2)N1 (centres unmarked),0.9143
CN(CC1CCCN(S(C)(=O)=O)C1)c1cnn(C)c1 (centres unmarked),15.77
COc1cccc(C(=O)NS(=O)(=O)c2cccc(C#N)c2)c1OC,-11.11
Cc1cnn(CC(C)Nc2nc(C)cc(N(C)C)n2)c1 (centres unmarked),-12.91
CCN1CCC2(COCc3cnc(NCC4CC4)nc32)C1.O=C(O)C(F)(F)F (centres unmarked),-13.94
CNC(=O)C1CN(Cc2cc(C)on2)CCN(C2CCOCC2)C1 (centres unmarked),5.683
Cc1ccsc1CNC1CCCc2c1cnn2C.Cl (centres unmarked),-34.37 & -1.561 & -23.48
CCc1noc(CN(C)C(=O)C(C)(C)Oc2cccc(Cl)c2)n1,-8.768
c1ccc(OC[C@H]2CCC[C@]23CN(Cc2nccs2)CCO3)nc1,-14.65
Cc1ccc(-c2nnc(CN3CCN(c4ccccn4)CC3)o2)cc1,-13.15
c1cnn(CC2CN(CC3CCCC3)CCO2)c1 (centres unmarked),-11.46
C=C(C)Cn1nc(C)c(CN2CCN(C3CCCCC3)C(=O)C2)c1C,5.646
CN(C)C(=O)c1n[nH]c2c1CN(Cc1ccccn1)CC2.O=C(O)C(F)(F)F,11.29
CCn1cc2c(n1)CN(CC1CC1)CC2COCC1CC1.O=C(O)C(F)(F)F (centres unmarked),-6.113
CCC1CN(C(=O)c2ccc(Cl)cc2O)CCN1C(C)C (centres unmarked),0.104
COc1ccc(CNCC2CCN(CC(C)O)CC2)c2ccccc12 (centres unmarked),15.14
Cc1ccc(Oc2ncccc2C(=O)O)c(C)c1,-0.502
Cc1nc(CN2CCOC(CN(C)c3cccnn3)C2)cs1 (centres unmarked),-6.474
COc1ccc(OCC(=O)NS(=O)(=O)c2ccc(Br)s2)cc1,8.98
Cc1cccc(C(=O)NCc2ccnc(N(C)C)c2)n1,-7.63
CC(CNC(=O)N1CCN(c2ncccn2)CC1)Cc1cccs1 (centres unmarked),-10.53
c1cn(-c2nccnc2C2CCCN(C3CCOCC3)C2)cn1 (centres unmarked),8.47
CN1CCNC(=O)C12CCN(Cc1ccco1)CC2.O=C(O)C(F)(F)F.O=C(O)C(F)(F)F,-7.491
Cc1nc(CN2CCCn3c(nc(Cn4ccnc4)cc3=O)C2)cs1,-1.096
Cc1ccc(CNCC2CCCN2c2cccnn2)s1 (centres unmarked),4.456
COCC1CC2(CCN(c3ccccn3)CC2)CN1C(C)C.O=C(O)C(F)(F)F.O=C(O)C(F)(F)F (centres unmarked),-4.219
Cc1ccsc1CNc1cc(N2CCCC2CO)ncn1 (centres unmarked),-14.8
Cn1cc(C2CC(=O)NC23CCN(Cc2ccncc2)CC3)cn1.O=C(O)C(F)(F)F.O=C(O)C(F)(F)F (centres unmarked),18.21
COc1ccccc1NC(=O)CSC1CCc2ccccc2NC1=O (centres unmarked),-9.044
COCC1CN(C(=O)CC2=CCCCC2)Cc2nnn(CC3CC3)c21 (centres unmarked),0.4259
O=C(COc1cccc(F)c1)N1C[C@@H](O)[C@H](N2CCOCC2)C1,4.686
Cc1ccsc1C(=O)NCc1ccnc(N2CCN(C)CC2)c1,2.416
Cc1ccc(CN2CCn3cc(CN4CCN(C)CC4)nc3C2)cc1.O=C(O)C(F)(F)F.O=C(O)C(F)(F)F.O=C(O)C(F)(F)F,-15.19
CCN1CCC(CNC(=O)Nc2cnn(CC(N)=O)c2)C1 (centres unmarked),-27.07 & -26.02
Cc1ccc(C(=O)NC2CCN(C(=O)Nc3ccccn3)CC2)s1,0.6463
CN(C)C1(CNC(=O)Cc2ccc(F)cc2)CCOCC1,-11.43

Some entries from above, unchanged:

| structure | effect |
|---|---|
| `Cc1ccsc1CNc1cc(N2CCCC2CO)ncn1` (centres unmarked) | -14.8 |
| `CCC1CN(C(=O)c2ccc(Cl)cc2O)CCN1C(C)C` (centres unmarked) | 0.104 |
| `COCC(=O)N1Cc2nccn2CC(CN(C)Cc2cccnc2)C1` (centres unmarked) | 24.07 |
| `O=C(O)C(F)(F)F.O=C1CC(c2ccncc2)C2(CCN(C(=O)c3ccc[nH]3)CC2)N1` (centres unmarked) | 0.9143 |
| `CCN1CCC(CNC(=O)Nc2cnn(CC(N)=O)c2)C1` (centres unmarked) | -27.07 & -26.02 |
| `Cn1cc(C2CC(=O)NC23CCN(Cc2ccncc2)CC3)cn1.O=C(O)C(F)(F)F.O=C(O)C(F)(F)F` (centres unmarked) | 18.21 |
| `COc1ccccc1NC(=O)CSC1CCc2ccccc2NC1=O` (centres unmarked) | -9.044 |
| `CN(CC1CCCN(S(C)(=O)=O)C1)c1cnn(C)c1` (centres unmarked) | 15.77 |

From ChEMBL document CHEMBL3988442, “University of Dundee, Small-Polar-MMV Screening Library” (2021).